According to patent US10155948B2, “Pharmaceutical composition for preventing or treating diabetic complications and screening method for preventive or therapeutic agent for diabetic complications” (KANGWON NATIONAL UNIVERSITY UNIVERSITY-INDUSTRY COOPERATION …, priority 2016, dated 2018):
At least one structure is not confirmed: it was looked up by name or label, or the drawing left a doubt.

Key:
[1] = tested on: HRECs; experiment: In-vitro endothelial cell monolayer permeability assay (FITC-dextran, Transwell); type: cell-based, human; settings: 50 μM cystamine, 20 μM MDC or 100 nM dasatinib 30 min, 10 ng/ml VEGF 90 min, p<0.01
Protocol: In-vitro permeability assay was performed as previously described. HRECs were grown on gelatin-coated inserts (0.4 μm polycarbonate membrane) of Transwell® Permeable Supports (Costar, Corning, N.Y., USA) up to confluence. Approximately 1.0×10^5 cells in 0.5 ml of culture medium were seeded on the upper side of the membrane while 1 ml of culture medium was added to the lower compartment. […] The amount of FITC-dextran that diffused through the endothelial monolayer into the lower chamber was measured using a microplate spectrofluorometer (Molecular Devices, Sunnyvale, Calif., USA).
(A-C) HRECs were preincubated with 50 μM cystamine (Cys) and 20 μM MDC for 30 min and treated with 10 ng/ml VEGF. […] (C) Adherens junctions were quantitatively analyzed using the peak fluorescence intensities of the histograms at the single-cell level. The results are expressed as mean±SD from three independent trials. […] The amount of FITC-dextran that diffused to the lower chamber was measured by a microplate spectrofluorometer (n=3) (**p<0.01).
(A) β-catenin was visualized by confocal microscopy. […] (B) cSrc phosphorylation at Tyr^416 was analyzed by Western blot. […] Results are expressed as mean±SD from three independent experiments (**p<0.01, ***p<0.001).

[2] = tested on: β-catenin; experiment: Visualization of β-catenin in HRECs; type: cell-based, human; settings: 50 μM cystamine or 100 nM dasatinib 30 min, 10 ng/ml VEGF 90 min
Protocol: For visualization of β-catenin, cells were preincubated with inhibitors for 30 min and treated with 10 ng/ml VEGF for 90 min, fixed with 3.7% formaldehyde, and permeabilized with 0.2% Triton X-100. Cells were incubated overnight with a monoclonal anti-3-catenin antibody (1:200, Santa Cruz Biotechnology) at 4° C. Cells were then probed with an FITC-conjugated goat anti-mouse antibody (1:200, Sigma) and visualized using confocal microscopy. Images for making galleries were cropped to a smaller size using Microsoft PowerPoint 2010 software.
(A) β-catenin was visualized by confocal microscopy. Scale bar, 30 μm. (B) cSrc phosphorylation at Tyr^416 was analyzed by Western blot. (C) In-vitro endothelial cell monolayer permeability assay. Results are expressed as mean±SD from three independent experiments (**p<0.01, ***p<0.001).

Cc1nc(Nc2ncc(C(=O)Nc3c(C)cccc3Cl)s2)cc(N2CCN(CCO)CC2)n1 [dasatinib]
VEGF-increased in-vitro endothelial permeability [1]: blocked
VEGF-induced β-catenin breakdown [2]: inhibited
